One data set concerns PRC2 complex. Put plainly: enzyme reaction in vitro. As to conditions: 25 nM PRC2 with 200 nM B2 RNA gives fragmentation; 0.5 mM MgCl2; purified recombinant protein; label: radiolabelled in filter binding (cpm).
For a further data set, the target named is EED (UniProt Q921E6). Put plainly: enzyme reaction in vitro. To be noted: mild enhancement of B2 cleavage kobs; fragmentation event said not observed in FIG. 2C; purified recombinant protein; label: radiolabelled in filter binding (cpm).

By UniProt entry, the sequences of proteins in these tests, tags left out. Where a name states a change or a piece, a line headed by the entry shows the natural chain unless it says otherwise.
UniProt Q921E6: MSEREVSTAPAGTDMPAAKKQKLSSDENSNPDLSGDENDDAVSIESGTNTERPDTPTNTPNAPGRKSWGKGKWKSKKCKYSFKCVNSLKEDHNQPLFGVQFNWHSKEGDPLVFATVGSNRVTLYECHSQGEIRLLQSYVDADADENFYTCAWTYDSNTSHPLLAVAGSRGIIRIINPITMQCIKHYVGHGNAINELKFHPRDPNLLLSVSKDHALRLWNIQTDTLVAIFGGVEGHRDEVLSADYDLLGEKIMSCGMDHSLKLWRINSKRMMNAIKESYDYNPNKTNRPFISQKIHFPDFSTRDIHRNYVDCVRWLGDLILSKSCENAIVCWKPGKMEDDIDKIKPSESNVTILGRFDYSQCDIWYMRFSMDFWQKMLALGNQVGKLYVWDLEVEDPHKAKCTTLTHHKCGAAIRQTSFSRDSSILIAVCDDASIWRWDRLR

For some assays here: The exact form of at least one protein or probe is not confirmed.

Take “GGGGCUGGUGAGAUGGCUCAGUGGGUAAGAGCACCCGACUGCUCUUCCGAAGGUCCGGAGUUCAAAUCCCAGCAACCACAUGGUGGCUCACAACCAUCCGUAACGAGAUCUGACUCCCUCUUCUGGAGUGUCUGAAGACAGCUACAGUGUACUUACAUAUAAUAAAUAAAUAAAUCUUUAAAAAAAAA [B2 RNA full length]”: the results for the functional effect entry in the data set with PRC2 complex and with EED were “active” and 0.008 min⁻¹, respectively.

These data come from patent publication US20190144863.
